Results: PMC5253665
These are yes or no findings as the source states them, for the method shown. In cells and extracts the contact can be indirect. Some entries that bind do so weakly or less than the wild type.

Chains of the proteins cited; added tags and fusions are not shown. Residues count along the entry.
UniProt P29459, residues 23-219: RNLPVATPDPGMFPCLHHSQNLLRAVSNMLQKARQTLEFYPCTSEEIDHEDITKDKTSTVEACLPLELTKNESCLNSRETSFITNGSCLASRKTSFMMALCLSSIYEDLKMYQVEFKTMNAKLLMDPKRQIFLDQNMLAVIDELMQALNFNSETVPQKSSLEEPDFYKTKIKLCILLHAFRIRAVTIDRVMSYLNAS

Molecular target: P35 subunit of IL-35 (human (endogenous in PDAC tumour tissue and primary PDAC cell lines)) (UniProt P29459)
Assay: co-IP; endogenous proteins in lysates of PDAC tumour tissue (three patients) and of PDAC primary cell lines; immunoprecipitation with antibodies to P35, EBI3, P28 or P40, western blot; the supernatant left after immunoprecipitation was blotted too

binding: binds
B1: EBV-induced gene 3 (EBI3) subunit of IL-35 (protein, UniProt Q14213 21-229)
chain: RKGPPAALTLPRVQCRASRYPIAVDCSWTLPPAPNSTSPVSFIATYRLGMAARGHSWPCLQQTPTSTSCTITDVQLFSMAPYVLNVTAVHPWGSSSSFVPFITEHIIKPDPPEGVRLSPLAERQLQVQWEPPGSWPFPEIFSLKYWIRYKRQGAARFHRVGPIEATSFILRAVRPRARYYVQVAAQDLTDYGELSDWSLPATATMSLGK
